Experimental data reported in US20140322196A1 (priority 2011, published 2014).
At least one peptide structure holds a part that was inferred or is arguable (an end, a ring closure or a residue). Some entries repeat one wording, which the source may state once for all of them. Ends that are not written are not given here.

Columns and labels:
[1] = tested on: A/Roma-ISS/2/08 (Brisbane-like) (oseltamivir-sensitive) H1N1; format: cell-based, Influenza A virus
A/PR/8/34 H1N1 = format: cell-based, Influenza A virus
[2] = tested on: A/Parma/5/06 (Wisconsin-like) H3N2; format: cell-based, Influenza A virus
[3] = tested on: A/Wisconsin (67/05) inactivated subunits, vaccine H3N2; format: cell-based, Influenza A virus
[4] = tested on: SW X-179A 1089/09 inactivated subunits, vaccine H1N1; format: cell-based, Influenza A virus
[5] = tested on: Avian 29/05/06 inactivated vaccine H5N1; format: cell-based, Influenza A virus; details: Avian 29/05/06 H5N1 inactivated vaccine
[6] = tested on: A/Turkey/Italy/2676/99 H7N1; format: cell-based, Influenza A virus
[7] = tested on: all tested virus strains (Influenza A H1N1, H3N2, H5N1, H7N1)
[8] = tested on: A/Solomon (3/06) inactivated subunits, vaccine H1N1; format: cell-based, Influenza A virus

| Sequence | HI titre [1] | HI titre (A/PR/8/34 H1N1) | HI titre [2] | HI titre [3] | HI titre [4] | HI titre [5] | HI titre [6] | inhibition of viral hemagglutination (in words) [7] | HI titre [8] |
| --- | --- | --- | --- | --- | --- | --- | --- | --- | --- |
| AGDDQGLDKCVPNSKEK [SEQ ID NO: 2, AGDDQGLDKCVPNSKEK] | 1.4 pM | 350 pM | 0.7 pM | 11.6 fM | 46 fM | 70 fM | 46.5 fM | able to prevent hemagglutinating activity of all tested virus strains at higher extent compared to the entire protein | – |
| NGESSADWAKN [SEQ ID NO: 4, NGESSADWAKN] | 0.0007 pM | 0.0007 pM | 0.3 pM | 5.8 fM | 0.3 fM | 93.1 fM | 5.8 fM | able to prevent hemagglutinating activity of all tested virus strains at higher extent compared to the entire protein | 93 fM |
| SKHSSLDCVLRP [SEQ ID NO: 1, SKHSSLDCVLRP] | 1.4 pM | 700 pM | 0.7 pM | 23.2 fM | 5.8 fM | 18 fM | 18 fM | able to prevent hemagglutinating activity of all tested virus strains at higher extent compared to the entire protein | 46.5 fM |
